{"source": "PubChem BioAssay AID1224826, NIAID – 2016", "test": "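Knock-downs that raise or lower Tnf reporter signal after endotoxin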 (primary screen)", "cell system": "RAW264.7 G9 macrophages from mouse bearing reporters for p65 (GFP) and the Tnf promoter (mCherry)", "reagent": "siRNA pool against mouse genes, 100 nM", "time to read-out": "16 h of LPS stimulation, after 2 days of siRNA transfection", "challenge": "bacterial lipopolysaccharide (Salmonella minnesota R595), 10 ng/ml", "detection": "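Nuclear mCherry signal of the Tnf promoter reporter measured by imaging after background removal, scaled to each plate median and turned into robust z-scores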", "direction": "Tnf reporter robust z-score: higher = stronger Tnf promoter reporter signal after LPS", "hit rule": "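Called active when robust z-score is at most -1.3, matching the median of the Tlr4 knock-down control, or over 3; control wells and wells with under 50 cells never active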", "meaning of the calls": "active = Tnf reporter clearly lowered or raised; inactive = no clear change in Tnf reporter", "note": "Shown is one part, drawn at random, of about 17,000 deposited reagents. Over the whole deposit, about 1,110 (6.6%) got an active call. 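Active means lowered or raised reporter signal; replicate intensities are raw and not normalised per plate.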 Not all columns of the deposit are shown."}
{"Target gene":"Hebp2 (GeneID 56016)","Tnf reporter robust z-score":0.62,"fewer than 50 cells in well":"enough cells in well","activity call":"inactive"}
{"Target gene":"Spaca7b (GeneID 76413)","Tnf reporter robust z-score":-0.25,"fewer than 50 cells in well":"enough cells in well","activity call":"inactive"}
{"Target gene":"Arfrp1 (GeneID 76688)","Tnf reporter robust z-score":-0.9,"fewer than 50 cells in well":"enough cells in well","activity call":"inactive"}
{"Target gene":"Lpcat3 (GeneID 14792)","Tnf reporter robust z-score":-0.55,"fewer than 50 cells in well":"enough cells in well","activity call":"inactive"}
{"Target gene":"Frs2 (GeneID 327826)","Tnf reporter robust z-score":1.01,"fewer than 50 cells in well":"enough cells in well","activity call":"inactive"}
{"Target gene":"Bcl9l (GeneID 80288)","fewer than 50 cells in well":"fewer than 50 cells per well; well left out of calls","activity call":"inactive"}
{"Target gene":"Rorc (GeneID 19885)","Tnf reporter robust z-score":-1.24,"fewer than 50 cells in well":"enough cells in well","activity call":"inactive"}
{"Target gene":"Rpl31 (GeneID 114641)","fewer than 50 cells in well":"fewer than 50 cells per well; well left out of calls","activity call":"inactive"}

Records above whose target name starts with R or r (2):
{"Target gene":"Rorc (GeneID 19885)","Tnf reporter robust z-score":-1.24,"fewer than 50 cells in well":"enough cells in well","activity call":"inactive"}
{"Target gene":"Rpl31 (GeneID 114641)","fewer than 50 cells in well":"fewer than 50 cells per well; well left out of calls","activity call":"inactive"}

Next results follow.
{"Target gene":"Plscr3 (GeneID 70310)","Tnf reporter robust z-score":-0.04,"fewer than 50 cells in well":"enough cells in well","activity call":"inactive"}
{"Target gene":"Ear10 (GeneID 93725)","Tnf reporter robust z-score":-0.57,"fewer than 50 cells in well":"enough cells in well","activity call":"inactive"}
{"Target gene":"Cnnm2 (GeneID 94219)","Tnf reporter robust z-score":-0.33,"fewer than 50 cells in well":"enough cells in well","activity call":"inactive"}
{"Target gene":"Cmtm4 (GeneID 97487)","Tnf reporter robust z-score":0.51,"fewer than 50 cells in well":"enough cells in well","activity call":"inactive"}
{"Target gene":"Exd2 (GeneID 97827)","Tnf reporter robust z-score":0.37,"fewer than 50 cells in well":"enough cells in well","activity call":"inactive"}
{"Target gene":"Serp1 (GeneID 28146)","Tnf reporter robust z-score":-1.21,"fewer than 50 cells in well":"enough cells in well","activity call":"inactive"}
{"Target gene":"Micu2 (GeneID 68514)","Tnf reporter robust z-score":-1.01,"fewer than 50 cells in well":"enough cells in well","activity call":"inactive"}
{"Target gene":"Ccnd1 (GeneID 12443)","Tnf reporter robust z-score":-0.43,"fewer than 50 cells in well":"enough cells in well","activity call":"inactive"}
{"Target gene":"Ak2 (GeneID 11637)","Tnf reporter robust z-score":0.82,"fewer than 50 cells in well":"enough cells in well","activity call":"inactive"}
{"Target gene":"Or7g21 (GeneID 258557)","Tnf reporter robust z-score":1.07,"fewer than 50 cells in well":"enough cells in well","activity call":"inactive"}
{"Target gene":"Gh (GeneID 14599)","Tnf reporter robust z-score":0.53,"fewer than 50 cells in well":"enough cells in well","activity call":"inactive"}
{"Target gene":"Entpd2 (GeneID 12496)","Tnf reporter robust z-score":0.78,"fewer than 50 cells in well":"enough cells in well","activity call":"inactive"}
{"Target gene":"Aip (GeneID 11632)","Tnf reporter robust z-score":0.56,"fewer than 50 cells in well":"enough cells in well","activity call":"inactive"}
